These are yes or no findings as the source states them, for the method shown. Binding seen in cells or lysates may run through a third protein. Some binding calls cover weakened binding; strength is not graded here.
Molecular target: endogenous glutamate dehydrogenase 1 (GLUD1) (human (endogenous in HCT116 and LoVo)), P00367
Assay: co-IP; endogenous proteins in HCT116 and LoVo lysates; anti-GLUD1 antibody or normal immunoglobulin G coupled to Amino Link Plus resin (Pierce Co-IP Kit); overnight at 4 °C
Conditions: remark: other sources report otherwise

binding: binds
B1: endogenous Sirtuin5 (SIRT5), Q9NXA8 37-310 (enzyme)
chain: SSSMADFRKFFAKAKHIVIISGAGVSAESGVPTFRGAGGYWRKWQAQDLATPLAFAHNPSRVWEFYHYRREVMGSKEPNAGHRAIAECETRLGKQGRRVVVITQNIDELHRKAGTKNLLEIHGSLFKTRCTSCGVVAENYKSPICPALSGKGAPEPGTQDASIPVEKLPRCEEAGCGGLLRPHVVWFGENLDPAILEEVDRELAHCDLCLVVGTSSVVYPAAMFAPQVAARGVPVAEFNTETTPATNRFRFHFQGPCGTTLPEALACHENETVS
